Experimental data as given in PubChem BioAssay AID330 (DTP/NCI, 2004).
The list is a part of this screen's results and no random one: it is rich in T/C values a quarter to a half above the control, in often repeated tests (any T/C) and in doses without a T/C. Further doses and runs are listed elsewhere. T/C gives the treated animals as a percentage of the vehicle group. Some doses have a count of surviving animals in place of a T/C: the source holds a T/C of zero for them, seemingly a mark for toxic or unscored doses. Some survivor counts are full or nearly so, which does not show that the dose was tolerated: survival well below the control is almost never listed, so the zero probably covers shortened survival too. Survivors were counted at the toxicity check, usually on the fifth day, unless a day is given; later deaths do not show. Schedules are NCI's codes, taken here to give the interval after Q, in days (D) or hours (H), and the number of doses after X. Some entries were tested several times; the values are given in rising order. Where survival is the endpoint, the PubChem record calls one and a half times the control and up active, and a quarter to a half above the control has no call in these data; cut-offs in other NCI protocols can differ.

Tested on: P388 leukemia ip, CD2F1 mice, survival T/C
Experiment: NCI In Vivo Anticancer Drug Screen. Data for tumor model P388 Leukemia (intraperitoneal) in CD2F1 (CDF1) mice
Details: T/C endpoint: median survival time, higher T/C = longer survival
[1] = dose: 25.0 mg/kg/injection, schedule: Q01DX005 (ip), vehicle: saline with Tween-80
[2] = dose: 50.0 mg/kg/injection, schedule: Q01DX005 (ip), vehicle: saline with Tween-80
[3] = dose: 100.0 mg/kg/injection, schedule: Q01DX005 (ip), vehicle: saline with Tween-80
[4] = dose: 200.0 mg/kg/injection, schedule: Q01DX005 (ip), vehicle: saline with Tween-80
[5] = dose: 240.0 mg/kg/injection, schedule: Q01DX005 (ip), vehicle: saline with Tween-80
[6] = dose: 100.0 mg/kg/injection, schedule: Q01DX009 (ip), vehicle: saline
[7] = dose: 200.0 mg/kg/injection, schedule: Q01DX009 (ip), vehicle: saline
[8] = dose: 400.0 mg/kg/injection, schedule: Q04DX002 (ip), vehicle: saline
[9] = dose: 50.0 mg/kg/injection, schedule: Q01DX009 (ip), vehicle: Klucel (hydroxypropylcellulose) (HPC)
[10] = dose: 200.0 mg/kg/injection, schedule: Q01DX009 (ip), vehicle: Klucel (hydroxypropylcellulose) (HPC)
[11] = dose: 100.0 mg/kg/injection, schedule: Q04DX003 (ip), vehicle: saline with Tween-80
[12] = dose: 200.0 mg/kg/injection, schedule: Q04DX003 (ip), vehicle: saline with Tween-80

COC(=O)C1c2cc3c(c(O)c2C(OC)CC1(C)O)C(=O)c1c(O)cc2c(c1C3=O)OC1OC2(C)C(O)C(N(C)C)C1O (stereo not given)
T/C (dose: 1.6 mg/kg/injection, schedule: Q01DX009 (ip), vehicle: other): 148 % of control
T/C (dose: 2.5 mg/kg/injection, schedule: Q01DX009 (ip), vehicle: other): 142 % of control

COC(=O)c1ncn(C2CCCCC2)c1N
survivor count [1]: 0 of 6
survivor count [2]: 0 of 6
survivor count [3]: 0 of 6
survivor count [4]: 0 of 6

O=S(=O)(O)O.[Cu+2].[NH-]CCCCC[NH-].[NH-]CCCCC[NH-]
survivor count (dose: 25.0 mg/kg/injection, schedule: Q04DX002 (ip), vehicle: Klucel (hydroxypropylcellulose) (HPC)): 2 of 6
survivor count (dose: 50.0 mg/kg/injection, schedule: Q04DX002 (ip), vehicle: Klucel (hydroxypropylcellulose) (HPC)): 0 of 6
survivor count (dose: 75.0 mg/kg/injection, schedule: Q04DX002 (ip), vehicle: Klucel (hydroxypropylcellulose) (HPC)): 0 of 6
survivor count (dose: 150.0 mg/kg/injection, schedule: Q04DX002 (ip), vehicle: Klucel (hydroxypropylcellulose) (HPC)): 0 of 6
survivor count (dose: 300.0 mg/kg/injection, schedule: Q04DX002 (ip), vehicle: Klucel (hydroxypropylcellulose) (HPC)): 0 of 6

O=[N+]([O-])c1cccc2c1nnn2OC1CCCC1
survivor count (dose: 400.0 mg/kg/injection, schedule: Q01DX001 (ip), vehicle: saline with Tween-80): 2 of 6

O=C(Nc1ccc(Cl)cc1)Nc1nnc2nc(C(C(=O)c3cccs3)c3nc4nnc(NC(=O)Nc5ccc(Cl)cc5)n4[nH]c3=O)c(=O)[nH]n12
survivor count [5]: 6 of 6

CC1=CC(O)C(O)C2(C)C1CC1OC(=O)C(OC3OC(CO)C(O)C(O)C3O)C3C(C)C(O)C4(O)OCC13C42 (stereo not given)
survivor count (dose: 4.25 mg/kg/injection, schedule: Q01DX005 (ip), vehicle: water): 3 of 6
survivor count (dose: 8.5 mg/kg/injection, schedule: Q01DX005 (ip), vehicle: water): 2 of 6
survivor count (dose: 17.0 mg/kg/injection, schedule: Q01DX005 (ip), vehicle: water): 0 of 6

CN(C)C(C(N(C)C)=[N+](C)C)=[N+](C)C
survivor count (dose: 25.0 mg/kg/injection, schedule: Q01DX009 (ip), vehicle: saline): 3 of 6

O=C(O)CCCCCCCCCc1ccccc1
survivor count [6]: 6 of 6
survivor count [7]: 6 of 6

CCCCCCCCCCCCCCCCCC(=O)OCCN(C=O)C[n+]1ccccc1
survivor count [8]: 3 of 6

CCCCCCCCCCCCCCOCC(O)CN(CCO)CCO (stereo not given)
survivor count [6]: 5 of 6
survivor count [7]: 3 of 6

CC1=CCC2C3(C)C=CC(=O)C(C)(C)C3CC3OC(=O)C=C1C32C (stereo not given)
survivor count (dose: 3.0 mg/kg/injection, schedule: Q01DX009 (ip), vehicle: Klucel (hydroxypropylcellulose) (HPC)): 6 of 6
survivor count (dose: 6.0 mg/kg/injection, schedule: Q01DX009 (ip), vehicle: Klucel (hydroxypropylcellulose) (HPC)): 6 of 6

O=c1[nH]c2c(Cl)c(Cl)c(Cl)c(Cl)c2[nH]c1=O
survivor count [4]: 6 of 6

CCCn1cc2c3c(cccc31)[C@H]1C[C@@H](C)CN(C)[C@@H]1C2
T/C [1]: 126 % of control

O=c1[nH]c2cc([N+](=O)[O-])ccc2nc1/C=C(\O)c1cccc2ccccc12
survivor count (dose: 120.0 mg/kg/injection, schedule: Q01DX005 (ip), vehicle: Klucel + Tween-80): 6 of 6

COc1cccc2c1C(=O)c1c(O)c3c(c(O)c1C2=O)CC(O)(/C(CO)=N/NC(=O)CCC(=O)N/N=C(\CO)C1(O)Cc2c(O)c4c(c(O)c2C(OC2CC(N)C(O)C(C)O2)C1)C(=O)c1c(OC)cccc1C4=O)CC3OC1CC(N)C(O)C(C)O1 (stereo not given)
T/C (dose: 0.2 mg/kg/injection, schedule: Q01DX009 (ip), vehicle: water): 127 % of control
T/C (dose: 0.39 mg/kg/injection, schedule: Q01DX009 (ip), vehicle: water): 148 % of control
T/C (dose: 0.78 mg/kg/injection, schedule: Q01DX009 (ip), vehicle: water): 148 % of control
T/C (dose: 4.7 mg/kg/injection, schedule: Q04DX003 (ip), vehicle: water): 131 % of control
T/C (dose: 18.8 mg/kg/injection, schedule: Q04DX003 (ip), vehicle: water): 140 % of control
survivor count (dose: 25.0 mg/kg/injection, schedule: Q01DX009 (ip), vehicle: water): 6 of 6
T/C (dose: 37.5 mg/kg/injection, schedule: Q04DX003 (ip), vehicle: water): 133 % of control

CC(C)CC(C(=O)O)N1C(=O)C=CC1=O (stereo not given)
survivor count [9]: 1 of 6 and 3 of 6
survivor count (dose: 100.0 mg/kg/injection, schedule: Q01DX009 (ip), vehicle: Klucel (hydroxypropylcellulose) (HPC)): 1 of 6
survivor count [10]: 0 of 6

CN(C)c1ccc(/C=N/NC(=O)c2ccccc2N)c(Cl)c1
survivor count [5]: 6 of 6

O=C1CSC(=S)N1c1ccc(Cl)cc1
survivor count [10]: 2 of 5

COC(=O)C1(Cc2ccccc2)CCCC1(C#N)O[Si](C)(C)C (stereo not given)
survivor count [11]: 3 of 6
survivor count [12]: 0 of 6
survivor count (dose: 400.0 mg/kg/injection, schedule: Q04DX003 (ip), vehicle: saline with Tween-80): 0 of 6

N#CC1(C#N)C2C=CC(C3CCC=C32)C1(C#N)C#N (stereo not given)
survivor count [9]: 1 of 6

CCOC(=O)C1C2(C(C)=O)C(C)=Nc3c(C#N)cnn3C12C(=O)OCC (stereo not given)
survivor count [2]: 6 of 6

O=C1C2CC(Cl)C(SSC3CC4C(=O)N(SC(Cl)(Cl)C(Cl)Cl)C(=O)C4CC3Cl)CC2C(=O)N1SC(Cl)(Cl)C(Cl)Cl (stereo not given)
survivor count [1]: 2 of 5
survivor count [2]: 0 of 5
survivor count [3]: 0 of 5
survivor count [4]: 0 of 5

COc1ccc2c(c1OC)C(=O)O[C@@H]2[C@H]1c2cc3c(cc2CCN1C)OCO3
survivor count (dose: 160.0 mg/kg/injection, schedule: Q01DX009 (ip), vehicle: saline): 2 of 6

CCOC(=O)C1SC(=S)N(c2ccccc2)C1N (stereo not given)
survivor count [6]: 6 of 6
survivor count [7]: 6 of 6

O=C(CCN1CCCC1)c1ccccc1
survivor count (dose: 50.0 mg/kg/injection, schedule: Q01DX009 (ip), vehicle: saline): 0 of 6
survivor count [6]: 0 of 6
survivor count [7]: 0 of 6

CCCCNC1C2CCC(C)(C1O)C2(C)C (stereo not given)
survivor count (dose: 100.0 mg/kg/injection, schedule: Q01DX005 (ip), vehicle: Klucel (hydroxypropylcellulose) (HPC)): 0 of 6
survivor count (dose: 200.0 mg/kg/injection, schedule: Q01DX005 (ip), vehicle: Klucel (hydroxypropylcellulose) (HPC)): 0 of 6

Nc1cccc(SC2CC(=O)N(c3ccc4c(c3)OCO4)C2=O)c1 (stereo not given)
survivor count (dose: 400.0 mg/kg/injection, schedule: Q04DX003 (ip), vehicle: Klucel (hydroxypropylcellulose) (HPC)): 4 of 6

Nc1nc2nc3c(nc2c(=O)[nH]1)C(=O)N(c1ccc(C(=O)O)cc1)C3
survivor count (dose: 50.0 mg/kg/injection, schedule: Q04DX003 (ip), vehicle: saline with Tween-80): 6 of 6
survivor count [11]: 5 of 6
survivor count [12]: 3 of 6

COc1cc(/C=N\NC(=O)c2cccc(Cl)c2)ccc1N(CCCl)CCCl
T/C [11]: 127 % of control

COc1ccc(C[n+]2ccc3ccccc3c2C#N)cc1OC
survivor count (dose: 50.0 mg/kg/injection, schedule: Q04DX002 (ip), vehicle: saline): 1 of 5
survivor count (dose: 100.0 mg/kg/injection, schedule: Q04DX002 (ip), vehicle: saline): 0 of 5
survivor count (dose: 200.0 mg/kg/injection, schedule: Q04DX002 (ip), vehicle: saline): 0 of 5
survivor count [8]: 0 of 5
